## Library screening results

The values are deposited in ChEMBL (CHEMBL3988442, “University of Dundee, Small-Polar-MMV Screening Library” (2021)).

A: 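Whole-cell assay for inhibitors of Mycobacterium tuberculosis growth, labelled Cornell in the record; the read-out is not stated. The concentration is filed as 10 mM, unlikely as a test dose, so the dose is not known. Higher means stronger inhibition (inferred from two other growth screens of the library). Of about 53,000 compounds tested this way, about 900 (1.7%) reached 50% or more in at least one test.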
B: 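Assay on Mycobacterium tuberculosis, filed only as a heat shock assay from Cornell; the read-out is not stated. The concentration is filed as 10 mM, unlikely as a test dose, so the dose is not known. Direction is inferred from retests: higher values go with stronger inhibition. Size under these conditions: about 69,000 compounds, about 930 of them at 50% or above in at least one test.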

The filed quantity is “Percent Effect” (%). The controls that fix the scale are not given in the record; negative values are as filed. This is an unselected part of the compounds tested. A dash means the value is not listed here; it may have been measured.

structure	A	B
CNC(=O)c1ccc(CN(C(C)C)C(C)C)o1.Cl	-	-102.3
CNC(=O)C1Cn2ccnc2C2(CCN(Cc3cccnc3)CC2)O1.O=C(O)C(F)(F)F.O=C(O)C(F)(F)F.O=C(O)C(F)(F)F (stereo unspecified)	12.5	-3.867
c1cnc(Nc2ccc(C3CCCCN3Cc3ccncc3)cn2)nc1 (stereo unspecified)	63.94	18.26
CC(C)c1nccn1CCCNC(=O)c1ccc(-c2ccncc2)nc1	-	-40.83
O=C(CN1CCN(C(=O)Cc2ccc3c(c2)OCCO3)CC1)NC1CC1	14.4	11.47
Cc1cc(C)c2cc(CNC(C)C)c3nn(C)c(=O)n3c2c1	-48.03	-17.57
COc1ncccc1C(=O)N1CC(c2nc(-c3ccco3)no2)C1	-12.4	-18.64
CC(C)c1cc(C(=O)N[C@@H]2CC[C@@H](Oc3ccccc3)[C@@H]2O)on1	75.51	3.566
N[C@H]1CN(C(=O)CCc2ccccn2)C[C@@H]1c1ccccc1	19.6	-7.67
CCn1c(CN(C)C)nnc1C1CCN(Cc2cccc(C#N)c2)CC1	7.12	-17.51
CCN(Cc1ccoc1)C(=O)C1CN(C(=O)OC(C)(C)C)C1	-	7.188
O=C(NCCN1CCOCC1)c1nc(-c2ccc3[nH]ccc3c2)no1	7.291	-3.732
Cc1cc(C(=O)N2CCc3ncc(CN4CCOCC4)n3CC2)no1	-17.1	-7.022
[H][C@]12CN(C(=O)c3ccnnc3)C[C@@]1([H])OCCN(S(C)(=O)=O)C2	-1.074	17.97
CCn1nc(C)c2ccn(CC(=O)NCCCOC)c(=O)c21	25.76	9.632
Cc1n[nH]c(C)c1NC(=O)c1cccc(OCC(F)(F)F)n1	-	1.457
[H][C@]12CC[C@]([H])(CN(Cc3ccccn3)C1)N(CC(=O)NCc1cccs1)C2	-13.14	38.31
Cc1cccc(Cn2c3c(ccc2=O)CCN(Cc2ccoc2)CC3)n1.O=C(O)C(F)(F)F.O=C(O)C(F)(F)F	2.722	0.6155
O=C1Nc2ccccc2CN(CC2CC2)C12CCNC2 (stereo unspecified)	-	13.12
CC(C)c1cc(C(=O)NCCn2nnc3ccccc32)no1	-4.818	-10.7
[H][C@@]12CN(Cc3ccc(F)c(F)c3)C[C@]1([H])OCC(=O)N2Cc1nccn1C	-40.03	-22.64
[H][C@@]12COC[C@H](c3nc(C)no3)[C@]1([H])CN(C(=O)COCC)C2	17.09	-2.238
Cc1cnn(CC(C)NCc2cc(C#N)ccc2F)c1 (stereo unspecified)	-35.54	-42.42
CC(Nc1nc(-c2ccccc2)nc2c1CCNCC2)c1cccnc1 (stereo unspecified)	76.64	73.2
Cc1ccccc1C(N)c1ccncc1.Cl (stereo unspecified)	37.7	-2.747
CC(C)=CCS(=O)(=O)Cc1ccn(-c2cccc(F)c2)n1	-3.501	-13.01
CCOC(=O)c1ccc(NC(=O)Cn2cc(I)cn2)cc1	40.27	15.07
COCCC(=O)N1CCn2c(COCC3CC3)cnc2C1C (stereo unspecified)	-6.416	-0.2481
Cc1cnn(CC2CN(CC(=O)Nc3nncs3)CCO2)c1 (stereo unspecified)	-	-11.3
Cc1nc(C)c(C(=O)N2CCc3nnc(C4CCCCN4C)n3CC2)s1 (stereo unspecified)	54.31	8.523
O=C(O)c1cccc2c(Br)cccc12	12.42	1.861
Cn1cc(CCNCc2cc(Cl)c3c(c2)OCCO3)cn1	-	-0.9385
CCNC(=O)Nc1ncc(-c2cccnc2)s1	22.55	-0.191
Cc1ncc2c(n1)CN(CCOc1ccc3c(c1)CCC(=O)N3)CC2	-3.351	-34.29
Cc1cc(N[C@@H](CO)c2ccccc2)n2nc(C)c(C)c2n1	-3.317	11.1
CC(NC(=O)c1cc2n(n1)CCCN(C)C2)c1cn2ccsc2n1 (stereo unspecified)	-4.311	-39.65
Cc1ccccc1-c1cncc(C2CCN(C)CC2)n1	8.927	10.06
CC(C)C(C)(CNC(=O)OC(C)(C)C)NC(=O)c1cnccn1 (stereo unspecified)	7.707	-13.17
CCCn1cc(C(=O)NCCS(N)(=O)=O)c2ccccc21	-	-25.61
N#CCCN(CCC#N)C(=O)COC1CCCCC1	18.51	-8.205
Cc1cc(CCC(=O)NCc2nccn2C)ccc1Br	23.6	-27.36
CN(Cc1cc(F)cc2cccnc12)CC1CCN(CCO)CC1	-	-31.94
CCOCCCNC(=O)c1nn(CC)cc1Cl	-	-4.367
CCC(C)N(Cc1ccsc1)C(=O)c1ccc(CO)cc1 (stereo unspecified)	25.52	9.712
CCOc1ccnc(N2CCN(CCOC)CC2)n1	-22.72	-6.056
Cc1ccc2occ(CN3CCN(c4ncccn4)CC3)c(=O)c2c1	-	-130.2
CCCn1cc(C(=O)N2CCCC(c3nccn3CCOC)C2)c(C)n1 (stereo unspecified)	-9.643	-9.599
CCOCCOC(C)C(=O)Nc1ccnn1-c1ccccc1C (stereo unspecified)	3.708	2.301
CC(C)n1nc(CN2CCCCC2)c2c1CN(C(=O)c1ccno1)C2.O=C(O)C(F)(F)F	-8.665	28.21
NCCO[C@H]1C[C@@H](O)C12CCN(C1Cc3ccccc3C1)CC2	-	-32.18
CCCn1c(C)cc(C(=O)CN2C(=O)c3ccccc3CS2(=O)=O)c1C	-	6.173
CCCN(Cc1ccccc1O)S(=O)(=O)C(C)CC (stereo unspecified)	18.74	0.03568
[H][C@@]12CCN(Cc3ccco3)C[C@@]1([H])O[C@@H](c1ccnc(C(C)C)n1)C2	21.53	18.09
CCCn1cc(NC(=O)c2ccc(N(C)CC)cc2)ccc1=O	-	-8.13
CS(=O)(=O)CCCNC1(c2cccc(Cl)c2)CCCC1	-	12.07
COc1cccc(CCC2CCCN(C(=O)c3cnccn3)C2)c1 (stereo unspecified)	16.06	-23.66
O=C(c1nnn(-c2ccc(C(F)(F)F)cc2)n1)N1CC(O)C1	30.38	5.298
O=C1OCCN1CCSc1nnnn1C1CCOCC1	-7.104	9.667
Cc1cccc(C(C)(C)CNC(=O)CCSc2nnnn2C)c1	5.124	-10.85
CCn1[nH]c(C)c2c(C(F)(F)F)cc(=O)nc1-2	-	-16.49
CCc1ccc2nc(C)cc(C(=O)NCc3csc(N(C)C)n3)c2c1	-	-2.87
O=C(O)C(F)(F)F.O=C(O)C(F)(F)F.[H][C@]12CCC[C@@H](CN3CCOCC3)[C@@]1([H])CN(Cc1csnn1)C2	7.165	-21.44
CC(=O)N1CCc2c(nc(N(C)C)nc2N(C)CCO)C1	-19.88	-7.361
O=C(C1CCC1)N1CCC2(CC1)OCCO2	-11.33	-0.7525
N#Cc1cn(C2CC2)c(=O)n(CC(O)c2ccccc2F)c1=O (stereo unspecified)	-	3.236
Cc1cc(C(=O)NCC2Cn3nnc(C)c3CO2)no1 (stereo unspecified)	8.048	-42.58
CN(Cc1cccc(Cl)c1)S(=O)(=O)N1CCOCC1	19.19	-6.638
COc1cccc(CNC(=O)N2CCCC(Cn3cc(CN)nn3)C2)c1 (stereo unspecified)	10.09	7.133
O=C(Nc1nc2c(s1)CN(S(=O)(=O)C1CC1)CC2)Nc1ccccc1F	-21.25	-36.03
Cc1cnc(CN2CCC(N(C)Cc3noc(C4CC4)n3)C2)o1 (stereo unspecified)	-	-22.42
O=C(NCC(F)(F)F)c1ccc(-n2cncn2)nn1	-0.1184	-1.087
COCC(=O)NC[C@H]1OC[C@@H](NC2CCC(F)(F)CC2)[C@@H]1O	-12.39	-7.498
CC(Cc1ccco1)NC(=O)Nc1ccc(S(C)(=O)=O)nc1 (stereo unspecified)	-	2.446

Once more, the final 7:

structure	A	B
CN(Cc1cccc(Cl)c1)S(=O)(=O)N1CCOCC1	19.19	-6.638
COc1cccc(CNC(=O)N2CCCC(Cn3cc(CN)nn3)C2)c1 (stereo unspecified)	10.09	7.133
O=C(Nc1nc2c(s1)CN(S(=O)(=O)C1CC1)CC2)Nc1ccccc1F	-21.25	-36.03
Cc1cnc(CN2CCC(N(C)Cc3noc(C4CC4)n3)C2)o1 (stereo unspecified)	-	-22.42
O=C(NCC(F)(F)F)c1ccc(-n2cncn2)nn1	-0.1184	-1.087
COCC(=O)NC[C@H]1OC[C@@H](NC2CCC(F)(F)CC2)[C@@H]1O	-12.39	-7.498
CC(Cc1ccco1)NC(=O)Nc1ccc(S(C)(=O)=O)nc1 (stereo unspecified)	-	2.446